# According to the supplement of paper PMC8104966:
# Some of the results follow. Repeats in this data set agree poorly, so a single value says little.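 U2OS cells expressing ACE2 were combined with U2OS cells expressing full-length spike, and imaging quantified fusion as the fraction of nuclei displaying both cell types' fluorescent markers. Non-toxic compounds with a fusion z-score under -3, i.e., over three standard deviations below the plate's DMSO wells, are called inhibitory hits.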
# Test system: U2OS ACE2 x SARS-CoV-2 spike co-culture
# Assay: cell-cell fusion (fraction fused) z-score vs plate DMSO control; higher = more fusion
# Conditions: 30 µM; 5 h; toxicity class: non-toxic, passed QC
row,SMILES,cell-cell fusion (z-score)
1,COC(=O)C[C@H]1C(C)(C)C(=O)[C@@H]2CC3=C4CC(=O)O[C@@H](c5ccoc5)[C@]4(C)CCC3[C@@]1(C)C2=O (stereo not given in full),inactive: 0.862
2,CNS(=O)(=O)Cc1ccc2[nH]cc(CCN(C)C)c2c1.O=C(O)CCC(=O)O,inactive: 2.65
3,COc1ccc(CCN(C)CCCC(C#N)(c2cc(OC)c(OC)c(OC)c2)C(C)C)cc1OC.Cl (racemic) [(±)-Methoxyverapamil hydrochloride],inactive: 3.52
4,COc1ccc(CN(CCN(C)C)c2ncccn2)cc1.Cl,inactive: 3.43
5,Cc1cn([C@H]2C[C@@H](N=[N+]=[N-])[C@@H](CO)O2)c(=O)[nH]c1=O [3'-Azido-3'-deoxythymidine],inactive: 1.53
6,CN1CCN(CCCN2c3ccccc3Sc3ccc(C(F)(F)F)cc32)CC1.Cl.Cl,inactive: 3.46
7,NC(=O)N1c2ccccc2C=Cc2ccccc21 [Carbamazepine],inactive: 1.05
8,NC(=O)N1c2ccccc2C=Cc2ccccc21,inactive: 0.899
9,CN(C)CCCN1c2ccccc2Sc2ccc(Cl)cc21,inactive: 0.457
10,CO[C@H]1C[C@H](O[C@H]2[C@H](C)[C@@H](OC3O[C@H](C)C[C@H](N(C)C)[C@H]3OC(C)=O)[C@@H](C)C[C@]3(CO3)C(=O)[C@H](C)[C@@H](OC(C)=O)[C@@H](C)[C@@H](C)OC(=O)[C@@H]2C)O[C@@H](C)[C@@H]1OC(C)=O (stereo not given in full),inactive: 2.96
11,Br.C=CCN1CCc2cc(O)c(O)cc2C(c2ccccc2)C1 (racemic),inactive: -0.491
12,CC(C)=CCCC1(C)C=Cc2c(O)c3c(c(CC=C(C)C)c2O1)OC12C(=CC4CC1C(C)(C)OC2(C/C=C(/C)C(=O)O)C4=O)C3=O (stereo not given),inactive: 1.9
13,CC(C)NCC(O)c1ccc(NS(C)(=O)=O)cc1.Cl (stereo not given),inactive: 2.43
14,O=c1[nH]c(=S)[nH]c(-c2ccccc2)c1Cc1c(O)ccc2ccccc12 [Cambinol],inactive: 0.941
15,Cl.NCCc1ccc(S(=O)(=O)F)cc1 [4-(2-Aminoethyl)benzenesulfonyl fluoride hydrochloride],inactive: 1.96
16,C[C@@H]1CC[C@H]2[C@@H](C)C(=O)O[C@@H]3O[C@]4(C)CC[C@@H]1[C@]32OO4,inactive: 2.71
17,CCN(CC)C(=O)[C@]1(c2ccccc2)C[C@@H]1CN.Cl [Milnacipran hydrochloride],inactive: 2.12
18,COc1ccc(C(=O)NCc2ccc(OCCN(C)C)cc2)cc1OC,inactive: 3.23
19,CN[C@@H]1[C@H](O)[C@H](NC)[C@H]2O[C@@]3(O)C(=O)C[C@@H](C)O[C@H]3O[C@@H]2[C@H]1O.Cl.Cl [Spectinomycin dihydrochloride],inactive: 2.51
20,COc1cc(NS(=O)(=O)c2ccc(N)cc2)ncn1,inactive: 3.64
21,O=c1c(-c2ccc(O)cc2)coc2cc(O)ccc12 [Daidzein],inactive: 2.21
22,COC(=O)[C@@H]1OC(=O)C2OC23[C@@]1(C)CCC1[C@@]2(C)CCC(=O)C(C)(C)C2C[C@@H](OC(C)=O)[C@]13C (stereo not given in full),inactive: 1.91

row,SMILES,cell-cell fusion (z-score)
1,Br.CN1[C@@H]2C[C@@H](OC(=O)[C@H](CO)c3ccccc3)C[C@H]1[C@@H]1O[C@@H]12.O.O.O [Scopolamine HBr trihydrate],inactive: 1.93
2,CN(C)CCCN1c2ccccc2CCc2ccc(Cl)cc21.Cl [Clomipramine hydrochloride],inactive: -2.15
3,O=c1c2ccccc2oc2ccccc12,inactive: 2.93
4,Nc1nc2[nH]cc(CCc3ccc(C(=O)N[C@@H](CCC(=O)[O-])C(=O)[O-])cc3)c2c(=O)[nH]1.[Na+].[Na+] [Pemetrexed disodium],inactive: 1.31
5,C[C@@H]1O[C@@H](O[C@@H]2C=C3CCC4C(CC[C@]5(C)[C@@H](c6ccc(=O)oc6)CC[C@]45O)[C@@]3(C)CC2)C(O)C(O)[C@H]1O (stereo not given in full),inactive: 0.00325
6,CNS(=O)(=O)Cc1ccc2[nH]cc(CCN(C)C)c2c1.O=C(O)CCC(=O)O [Sumatriptan succinate],inactive: 2.32
7,NC(=O)[C@@H]1CC[C@@H]2CN1C(=O)N2OS(=O)(=O)[O-].[Na+] [Avibactam sodium],inactive: 1.71
8,OCCN1CCN(CCCN2c3ccccc3Sc3ccc(Cl)cc32)CC1 [Perphenazine],inactive: -0.297
9,CC(=O)N[C@@H](CCC(N)=O)C(=O)O.NCCO,inactive: 0.918
10,CC(=O)O[C@H]1CC[C@@]2(C)C(CC[C@]3(C)C2CC=C2C4CC(C)(C)CC[C@]4(C)CC[C@]23C)C1(C)C (stereo partly drawn) [beta-AMYRIN ACETATE],inactive: 1.84
11,COc1ccc(-c2nc(N3CCOCC3)c3sc(CN(C)c4ncc(C(=O)NO)cn4)cc3n2)cn1,inactive: 1.9
12,CC(C)(O)CC[C@@H](O)[C@](C)(O)C1CC[C@@]2(O)C3=CC(=O)C4C[C@@H](O)[C@@H](O)C[C@]4(C)C3CC[C@]12C (stereo not given in full),inactive: 2.13
13,C[C@@H]1CN(CC(=O)Nc2ccc3c(c2)Cc2cccc(-c4cc(=O)cc(N5CCOCC5)o4)c2S3)C[C@H](C)O1,inactive: 0.234
14,COC(=O)C1=C(C)NC(C)=C(C(=O)OC(C)(C)CN(C)CCC(c2ccccc2)c2ccccc2)C1c1cccc([N+](=O)[O-])c1.Cl (stereo not given) [Lercanidipine hydrochloride hemihydrate],inactive: 3.12
15,CC(C)N1CCN(c2ccc(OC[C@H]3CO[C@](Cn4cncn4)(c4ccc(Cl)cc4Cl)O3)cc2)CC1 [Terconazole],inactive: 2.2
16,COc1cccc(C(=O)NCCN2CCN(c3ccc(Cl)cc3)CC2)c1,inactive: 1.83
17,O=C(O)C1CSCN1 (stereo not given),inactive: 0.942
18,CN1CCC(OC(c2ccccc2)c2ccccc2)CC1.Cl,inactive: 0.821
19,CC1(C)[C@H](C(=O)O)N2C(=O)C[C@H]2S1(=O)=O [Sulbactam],inactive: 2.63
20,COc1ccnc(CS(=O)c2nc3cc(OC(F)F)ccc3[nH]2)c1OC (stereo not given),inactive: 3.53
21,CCN(CCO)CCCC(C)Nc1ccnc2cc(Cl)ccc12.O=S(=O)(O)O (stereo not given) [Hydroxychloroquine sulfate],inactive: 1.87
22,CC12CCC3c4ccc(O)cc4CCC3C1C[C@H](O)[C@@H]2O (stereo not given in full),active: -3.79

# 5 entries from above, set out differently.
row	SMILES	cell-cell fusion (z-score)
13	C[C@@H]1CN(CC(=O)Nc2ccc3c(c2)Cc2cccc(-c4cc(=O)cc(N5CCOCC5)o4)c2S3)C[C@H](C)O1	inactive: 0.234
14	COC(=O)C1=C(C)NC(C)=C(C(=O)OC(C)(C)CN(C)CCC(c2ccccc2)c2ccccc2)C1c1cccc([N+](=O)[O-])c1.Cl (stereo not given) [Lercanidipine hydrochloride hemihydrate]	inactive: 3.12
15	CC(C)N1CCN(c2ccc(OC[C@H]3CO[C@](Cn4cncn4)(c4ccc(Cl)cc4Cl)O3)cc2)CC1 [Terconazole]	inactive: 2.2
16	COc1cccc(C(=O)NCCN2CCN(c3ccc(Cl)cc3)CC2)c1	inactive: 1.83
17	O=C(O)C1CSCN1 (stereo not given)	inactive: 0.942

# Additional results

row,SMILES,cell-cell fusion (z-score)
1,O=C(O)CN(CCN(CC(=O)O)CC(=O)O)CCN(CC(=O)O)CC(=O)O,inactive: -1.23
2,O=C(O)CN(CCN(CC(=O)O)CC(=O)O)CCN(CC(=O)O)CC(=O)O [Diethylenetriaminepentaacetic acid],inactive: 2.55
3,CCC(CC)O[C@@H]1C=C(C(=O)O)C[C@H](N)[C@H]1NC(C)=O [Oseltamivir acid],inactive: 0.691
4,Cc1nccc2c1[nH]c1ccccc12,inactive: 0.631
5,CN(C)CCCN1c2ccccc2CCc2ccc(Cl)cc21.Cl,active: -4.16
6,CCN(CC)CCNC(=O)c1ccc(NC(C)=O)cc1.Cl,inactive: 1.59
7,CCN(CC)CCNC(=O)c1ccc(NC(C)=O)cc1.Cl [N-Acetylprocainamide hydrochloride],inactive: 1.28
8,CC(C)[N+](C)(CCOC(=O)C1c2ccccc2Oc2ccccc21)C(C)C.[Br-] [Propantheline bromide],inactive: 0.539
9,COc1cc([C@@H]2c3cc4c(cc3[C@@H](O[C@@H]3O[C@@H]5CO[C@@H](C)O[C@H]5[C@H](O)[C@H]3O)[C@H]3COC(=O)[C@H]23)OCO4)cc(OC)c1O [Etoposide],inactive: 1.23
10,CS(=O)(=O)O.N#CC1(c2ccc(NC(=O)c3cccnc3NCc3ccncc3)cc2)CCCC1 [Apatinib],inactive: -0.31
11,CCN(CC)C(=O)N1CCN(C)CC1.O=C(O)CC(O)(CC(=O)O)C(=O)O [Diethylcarbamazine citrate],inactive: 3.02
12,C[C@@H](OC[C@@]1(c2ccccc2)CC[C@]2(CCC(=O)N2)CN1)c1cc(C(F)(F)F)cc(C(F)(F)F)c1.Cl [Rolapitant hydrochloride],active: -13.1
13,C[C@H](NC(=O)Cc1cc(F)cc(F)c1)C(=O)N[C@@H]1C(=O)N(C)c2ccccc2-c2ccccc21,inactive: 1.86
14,N#CC[C@@H](C1CCCC1)n1cc(-c2ncnc3[nH]ccc23)cn1,active: -3.16
15,N#CC[C@@H](C1CCCC1)n1cc(-c2ncnc3[nH]ccc23)cn1 [S-Ruxolitinib],inactive: 1.6
16,CC(C)(C)NCC(O)c1cc(O)cc(O)c1.CC(C)(C)NCC(O)c1cc(O)cc(O)c1.O=S(=O)(O)O (stereo not given) [Terbutaline Sulfate],inactive: 3.55
17,CCC(C)n1ncn(-c2ccc(N3CCN(c4ccc(OC[C@H]5CO[C@](Cn6cncn6)(c6ccc(Cl)cc6Cl)O5)cc4)CC3)cc2)c1=O (stereo not given in full) [Itraconazole],inactive: 2.18
18,O=C1CCC(N2C(=O)c3ccccc3C2=O)C(=O)N1 (stereo not given),inactive: 2.39
19,NC(=O)c1ncn([C@@H]2O[C@H](CO)[C@@H](O)[C@H]2O)n1 [Ribavirin],inactive: 1.96
20,O=C([O-])CCCc1ccccc1.[Na+],inactive: 0.945
21,CC(C)N(CCC(=O)c1ccc2ccccc2c1)Cc1ccccc1.Cl,inactive: 1.44
